Experimental data taken from paper PMC7254050.

Biological target: T1, Hyaluronidase (HYAL)-2 (human (endogenous in human lung fibroblasts AG02262)) (UniProt Q12891)
T1 sequence: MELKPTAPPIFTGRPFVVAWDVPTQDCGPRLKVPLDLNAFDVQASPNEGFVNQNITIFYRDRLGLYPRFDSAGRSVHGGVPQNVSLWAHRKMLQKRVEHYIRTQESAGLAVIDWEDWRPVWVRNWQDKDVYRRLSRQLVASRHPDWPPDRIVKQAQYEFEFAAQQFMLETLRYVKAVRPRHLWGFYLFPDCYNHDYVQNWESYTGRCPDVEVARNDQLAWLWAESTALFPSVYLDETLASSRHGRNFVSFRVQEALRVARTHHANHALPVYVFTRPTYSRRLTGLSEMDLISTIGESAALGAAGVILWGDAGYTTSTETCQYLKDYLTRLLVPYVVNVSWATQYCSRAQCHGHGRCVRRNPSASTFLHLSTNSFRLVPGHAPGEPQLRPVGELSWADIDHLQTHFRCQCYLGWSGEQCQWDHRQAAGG
Experiment: co-IP; 25 μg protein of RIPA lysate of human lung fibroblasts (serum-free medium alone or 10 ng/mL TGF-β1, 72 hours) precipitated with anti-HYAL2 antibody-linked anti-rabbit Dynabeads, overnight at 4°C, three washes with Nonidet P-40 buffer; Western blot of the precipitate; rabbit IgG as negative control

With “calcium/calmodulin-dependent protein kinase type II (CaMKII) (enzyme)” the binding was “no binding”.

Results are given in words; binding and its absence hold for the method and conditions named. In cells and extracts the contact can be indirect.
